Experimental data reported in PubChem BioAssay AID504834 (National Center for Advancing Translational Sciences (NCATS), 2011).
About 22,000 (6.9%) of roughly 320,000 compounds were called active. This list was built around the results that the source calls inconclusive (neither active nor inactive); the mix of calls is not that of the screen. The call rests on the fitted dose curve; in most records, active means well fitted inhibition curve with a large enough effect; inconclusive means small, poorly fitted or top-dose-only effect, or another doubt; inactive means no such curve, though single readings can be large or run the other way. Potencies beside an inconclusive call are fits to weak or partial responses and may not hold up.

Assay: Primary qHTS for delayed death inhibitors of the malarial parasite plastid, 96 hour incubation
Conditions: P. falciparum luciferase reporter growth; series mostly up to 28.7 µM; activity change, negative = inhibition: at the top concentration
How it was run: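 P. falciparum expressing integrated firefly luciferase, in erythrocytes at 2% hematocrit, 0.05% parasitemia, incubated with compounds 96 h at 37 C, 5% CO2. Growth inhibition read as loss of luminescence; two-generation exposure targets delayed-death apicoplast inhibitors.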
On the % scale 0 is the no-effect control and ±100 the full control effect; potency means the concentration at half of the fitted maximal effect.

**Q.** Which Potency does the source give for `COc1cc(C2CC(=O)c3cnc(NC(=O)COc4ccccc4)nc3C2)cc(OC)c1OC` (stereo not drawn) here?
**A.** inconclusive: 14.7 µM [inhibitor, partial curve, poor fit]

**Q.** With `O=C(CCNC(=O)c1ccc(Br)cc1)Nc1nc2ccccc2[nH]1` as the compound, how does the “activity change, negative = inhibition” value read?
**A.** inactive: 22.3%

**Q.** With `Cc1ccc(-c2nnc(-n3nnc4ccccc43)c3ccccc23)cc1` as the compound, how does the Potency read?
**A.** inconclusive: 13.1 µM [inhibitor, partial curve, poor fit]

**Q.** Which Potency does the source give for `Cc1ccc2nc3c(c(Nc4ccccc4)c2c1)CCC3` here?
**A.** active: 9.28 µM

**Q.** With `COc1cccc(NC(=O)CN(C)C(=O)C2CCN(C(=O)c3ccccc3C)CC2)c1` as the compound, how does the Potency read?
**A.** inconclusive: 14.7 µM [inhibitor, partial curve, poor fit]

**Q.** Which Potency does the source give for `O=C(CC1SC(=Nc2cccc3ccccc23)N(Cc2ccccn2)C1=O)Nc1ccccc1Br` (stereo not drawn) here?
**A.** active: 8.28 µM

**Q.** With `COc1ccc(C(=O)/C=C/C(=O)N(CC(=O)NC2CCCCC2)Cc2ccc(F)cc2)c(O)c1` as the compound, how does the Potency read?
**A.** active: 2.33 µM

**Q.** For `CCN1CCN(C(=S)NC(=O)c2cccs2)CC1`, which “activity change, negative = inhibition” value is on record?
**A.** inactive: -24.4%

**Q.** For `NC(=O)c1cnn2c(C(F)(F)F)cc(-c3ccc(F)cc3)nc12`, which Potency is on record?
**A.** inconclusive: 18.5 µM [inhibitor, single point]

**Q.** With `S=C(NCc1ccco1)Nc1ccc(Oc2ccc(Cl)cc2)cc1` as the compound, how does the Potency read?
**A.** inconclusive: 13.1 µM [inhibitor, partial curve, poor fit]

**Q.** For `COC(=O)c1ccc(NC(=O)Cn2nc(-c3ccncc3)nc2SCC(=O)Nc2nccs2)cc1`, which “activity change, negative = inhibition” value is on record?
**A.** inactive: 2.99%

**Q.** With `O=C(CCn1c(=O)oc2ccccc21)NCCN1CCc2ccccc2C1` as the compound, how does the Potency read?
**A.** inconclusive: 1.04 µM [inhibitor, full curve, poor fit]

**Q.** For `Cc1cccc(C(=O)NC(=S)N2CCN(C(=S)NC(=O)c3cccc(C)c3)CC2)c1`, which Potency is on record?
**A.** inconclusive: 1.85 µM [inhibitor, partial curve, poor fit]

**Q.** With `CCc1nnc(NC(=O)CSc2nnc(-c3ccc(NS(=O)(=O)c4ccccc4)cc3)o2)s1` as the compound, how does the Potency read?
**A.** inconclusive: 11.7 µM [inhibitor, single point]

**Q.** Which Potency does the source give for `CCc1ccccc1-n1c(SCC(=O)c2c(N)n(C3CC3)c(=O)[nH]c2=O)nnc1N1CCOCC1` here?
**A.** inconclusive: 18.5 µM [inhibitor, single point]

**Q.** With `CC12CCC(c3c1nc1ccccc1[n+]3[O-])C2(C)C` (stereo not drawn) as the compound, how does the “activity change, negative = inhibition” value read?
**A.** inactive: -0.477%

**Q.** For `CC(NC(=O)c1ccc(C#N)cc1)C1CC2CCC1C2` (stereo not drawn), which “activity change, negative = inhibition” value is on record?
**A.** inactive: 43.3%

**Q.** With `CC1CN(C2CCN(C(=O)c3ccccc3Cl)CC2)CC(C)O1` (stereo not drawn) as the compound, how does the “activity change, negative = inhibition” value read?
**A.** inactive: 32.2%

**Q.** Which Potency does the source give for `Cc1ccc(C)c(CN2C(=O)C3CCCN3c3ccc(C#N)cc32)c1` (stereo not drawn) here?
**A.** active: 9.28 µM

**Q.** For `CCOc1ccccc1NC(=O)c1cnccn1`, which Potency is on record?
**A.** active: 11.7 µM

**Q.** With `Cc1ccc(OCC(=O)NC2CCCc3ccccc32)c(C)c1` (stereo not drawn) as the compound, how does the Potency read?
**A.** inconclusive: 10.4 µM [inhibitor, single point]

**Q.** For `CCOC(=O)c1cc(-c2cccc([N+](=O)[O-])c2)on1`, which Potency is on record?
**A.** inconclusive: 18.5 µM [inhibitor, single point]

**Q.** For `Cc1nc2sccn2c(=O)c1S(=O)(=O)NC(C)c1ccccc1` (stereo not drawn), which Potency is on record?
**A.** inconclusive: 4.65 µM [inhibitor, partial curve]

**Q.** With `Cc1cc(C)cc(-n2c(C)nc3cc(C(=O)O)ccc32)c1` as the compound, how does the Potency read?
**A.** inconclusive: 0.262 µM [inhibitor, partial curve, poor fit]

**Q.** Which Potency does the source give for `Cc1ccc(COC(=O)c2cccc(S(=O)(=O)N3CCCCC3)c2)cc1` here?
**A.** inconclusive: 18.5 µM [inhibitor, single point]

**Q.** With `NC(=S)N/N=C1\CC(n2nnn(-c3cccc(Cl)c3)c2=S)C2COC1O2` (stereo not drawn) as the compound, how does the “activity change, negative = inhibition” value read?
**A.** inactive: -6.39%

**Q.** For `CCOC(=O)C1=C(COC(=O)CNC(=O)c2ccccc2F)NC(=O)NC1C` (stereo not drawn), which “activity change, negative = inhibition” value is on record?
**A.** inactive: 20.5%

**Q.** For `COCC(C)NC(=O)c1ccc2c(c1)S(=O)(=O)c1ccccc1C2=O` (stereo not drawn), which Potency is on record?
**A.** inconclusive: 0.262 µM [inhibitor, full curve, poor fit]

**Q.** Which Potency does the source give for `O=S1(=O)CC2N=C(N(Cc3c(F)cccc3Cl)c3ccccc3F)SC2C1` (stereo not drawn) here?
**A.** inconclusive: 5.22 µM [inhibitor, partial curve]

**Q.** For `Cn1cc(CC(=O)N2CCN(c3ccccc3F)CC2)c2ccccc21`, which Potency is on record?
**A.** inconclusive: 10.4 µM [inhibitor, single point]

**Q.** For `CCCOc1ccc(C(O)C(CN2CCOCC2)c2ccccc2)cc1` (stereo not drawn), which Potency is on record?
**A.** active: 8.28 µM

**Q.** For `CCOc1ccc2nc(N(CCCN(C)C)C(=O)c3ccc(S(=O)(=O)N4CCc5ccccc5C4)cc3)sc2c1`, which Potency is on record?
**A.** inconclusive: 18.5 µM [inhibitor, single point]

**Q.** For `CN1CCN(C(=S)c2cn(CCOc3ccccc3F)c3ccccc23)CC1`, which “activity change, negative = inhibition” value is on record?
**A.** inactive: 83.5%

**Q.** With `N#Cc1ccc(S(=O)(=O)N2CCC(C(=O)N3CCN(Cc4ccc5c(c4)OCO5)CC3)CC2)cc1` as the compound, how does the Potency read?
**A.** inconclusive: 3.7 µM [inhibitor, full curve, poor fit]

**Q.** Which Potency does the source give for `COc1cccc(CNC(=O)COc2cc3c(c4oc(=O)cc(C)c24)CCC(C)(C)O3)c1` here?
**A.** active: 13.1 µM

**Q.** With `COC(=O)Cc1nc(NC(=O)c2cccs2)sc1C` as the compound, how does the “activity change, negative = inhibition” value read?
**A.** inactive: 104%

**Q.** Which “activity change, negative = inhibition” value does the source give for `CC(C)C(=O)OCC(=O)Nc1ccc(N=Nc2ccccc2)cc1` here?
**A.** inactive: 338%

**Q.** For `CC(=O)c1sc2c(c1OC(=O)c1ccc(Cl)cc1Cl)c(=O)n(-c1ccccc1)c(=S)n2-c1ccccc1`, which Potency is on record?
**A.** inconclusive: 8.28 µM [inhibitor, partial curve]

**Q.** For `O=c1c2ccccc2c(-c2ccccc2)nn1-c1ccccc1`, which Potency is on record?
**A.** inconclusive: 0.0586 µM [inhibitor, full curve, poor fit]

**Q.** With `COc1ccc(N2CC(C(=O)Nc3ccc(S(=O)(=O)Nc4nccs4)cc3)CC2=O)cc1` (stereo not drawn) as the compound, how does the Potency read?
**A.** inconclusive: 10.4 µM [inhibitor, single point]

**Q.** For `O=c1cc(CN2CCN(c3ccccc3)CC2)c2cc(O)c(-c3ccccc3)cc2o1`, which Potency is on record?
**A.** active: 3.29 µM

**Q.** Which Potency does the source give for `COC(=O)c1sc(N)c(C(=O)OC)c1CSc1nnnn1C` here?
**A.** active: 9.28 µM

**Q.** With `COC(=O)N/N=C/c1cc(Br)ccc1O` as the compound, how does the Potency read?
**A.** inconclusive: 18.5 µM [inhibitor, single point]

**Q.** With `Cc1ccc(N/C=C/C(=O)c2cccs2)cc1C` as the compound, how does the “activity change, negative = inhibition” value read?
**A.** inactive: 30.9%

**Q.** With `Cc1nc2c(cnn2-c2ccccc2Cl)c(=O)n1-c1ccc(N2CCC(C)CC2)cc1` as the compound, how does the “activity change, negative = inhibition” value read?
**A.** inactive: 9.48%

**Q.** With `CN(C(=O)COc1cccc(C#N)c1)C1CCS(=O)(=O)C1` (stereo not drawn) as the compound, how does the “activity change, negative = inhibition” value read?
**A.** inactive: 20.3%

**Q.** Which Potency does the source give for `O=C(NCc1ccccc1Cl)C1CCN(C(=O)c2ccco2)CC1` here?
**A.** inconclusive: 0.294 µM [inhibitor, full curve]

**Q.** For `O=C(/C=C/NNC(=O)c1ccccc1)c1ccc([N+](=O)[O-])cc1`, which Potency is on record?
**A.** inconclusive: 1.85 µM [inhibitor, full curve, poor fit]

**Q.** With `COc1ccc(NS(=O)(=O)c2ccc(NS(=O)(=O)c3cccs3)cc2)cc1` as the compound, how does the “activity change, negative = inhibition” value read?
**A.** inactive: -0.164%

**Q.** With `COc1ccc2c(CN3CCN(S(=O)(=O)c4cccs4)CC3)cc(=O)oc2c1` as the compound, how does the Potency read?
**A.** inconclusive: 18.5 µM [inhibitor, single point]

**Q.** Which Potency does the source give for `CCN(CC)C(=O)C1CCCN(Cc2nc(-c3cnccn3)no2)C1` (stereo not drawn) here?
**A.** inconclusive: 18.5 µM [inhibitor, single point]

**Q.** With `CN(C(=O)c1ccccc1)C1(C)CCS(=O)(=O)C1` (stereo not drawn) as the compound, how does the Potency read?
**A.** inconclusive: 18.5 µM [inhibitor, single point]

**Q.** For `COc1ccc2sc(-c3ccc(N(C)C)cc3)c(-c3cnc(OC)nc3)c2c1`, which Potency is on record?
**A.** inconclusive: 18.5 µM [inhibitor, single point]

**Q.** Which “activity change, negative = inhibition” value does the source give for `Cc1c(C(=O)Cc2ccccc2)n(C)c2ccccc12` here?
**A.** inactive: 1.78%

**Q.** For `CCc1ccccc1NC(=O)CSc1nc2n[nH]c(C)c2c(=N)n1-c1ccc(OC)cc1`, which “activity change, negative = inhibition” value is on record?
**A.** inactive: 31.8%

**Q.** With `NNC(=O)COc1ccc(C2SCCS2)cc1` as the compound, how does the Potency read?
**A.** inconclusive: 16.5 µM [inhibitor, single point]

**Q.** With `CN(C(=O)c1ccccc1C(=O)c1ccccc1)C1CCS(=O)(=O)C1` (stereo not drawn) as the compound, how does the Potency read?
**A.** inconclusive: 8.28 µM [inhibitor, partial curve, poor fit]

**Q.** For `C#CCSc1nc2[nH]ncc2c(=O)[nH]1`, which “activity change, negative = inhibition” value is on record?
**A.** inactive: 3.07%

**Q.** Which Potency does the source give for `CCOc1cc(-c2c(C#N)c(N)nc3c2CCCC3)ccc1O` here?
**A.** inconclusive: 18.5 µM [inhibitor, single point]

**Q.** Which Potency does the source give for `Cc1nc(CCl)cc(=O)[nH]1` here?
**A.** inconclusive: 9.28 µM [inhibitor, single point]

**Q.** Which Potency does the source give for `CC1(C)CC(C(CC(=O)N2CCCC2)Cc2ccccc2)CCO1` (stereo not drawn) here?
**A.** inconclusive: 14.7 µM [inhibitor, single point]

**Q.** For `COC(=O)c1onc(-c2c(Cl)cccc2Cl)c1C(=O)OC`, which “activity change, negative = inhibition” value is on record?
**A.** inactive: 31.9%

**Q.** Which “activity change, negative = inhibition” value does the source give for `O=C1NC2(CCCCCC2)N=C1c1ccc(Br)cc1` here?
**A.** inactive: 38.2%

**Q.** With `CC(C)CN(C(=O)CN1CCCCCC1)c1c(N)n(CC(C)C)c(=O)[nH]c1=O` as the compound, how does the Potency read?
**A.** inconclusive: 0.329 µM [inhibitor, partial curve, poor fit]

**Q.** Which “activity change, negative = inhibition” value does the source give for `COc1ccc(NC(=O)COc2ccc3c(c2)OCO3)cc1` here?
**A.** inactive: 23.1%

**Q.** Which “activity change, negative = inhibition” value does the source give for `Fc1ccc(C2CC(c3ccco3)=NN2c2ccccc2)cc1` (stereo not drawn) here?
**A.** inactive: 2.64%

**Q.** With `O=c1c2ccccc2c(-c2ccc(O)cc2)nn1-c1cccc(C(F)(F)F)c1` as the compound, how does the Potency read?
**A.** inconclusive: 10.4 µM [inhibitor, single point]

**Q.** Which Potency does the source give for `Cc1nc(-c2ccc(S(=O)(=O)NCC3CCN(C(=O)OC(C)(C)C)CC3)s2)cs1` here?
**A.** inconclusive: 11.7 µM [inhibitor, single point]

**Q.** With `Cc1ccc(C2CC2c2n[nH]c(=S)n2-c2cccc(Cl)c2)cc1` (stereo not drawn) as the compound, how does the “activity change, negative = inhibition” value read?
**A.** inactive: -16.3%

**Q.** For `O=S(=O)(Nc1ccc(O)c(Sc2nc3ccccc3s2)c1)c1ccc(Cl)cc1`, which Potency is on record?
**A.** inconclusive: 18.5 µM [inhibitor, single point]

**Q.** With `COc1cccc(NC(=O)CN(C)C(=O)c2cccnc2Nc2cccc(C(F)(F)F)c2)c1` as the compound, how does the Potency read?
**A.** inconclusive: 18.5 µM [inhibitor, single point]

**Q.** For `O=C(CN1CCCCC1)Nc1ccc(NC(=O)c2ccccc2Cl)cc1Cl`, which Potency is on record?
**A.** active: 14.7 µM

**Q.** For `Cc1csc(SCC(=O)N2CCN(S(=O)(=O)c3ccccc3)CC2)n1`, which “activity change, negative = inhibition” value is on record?
**A.** inactive: -18%
